{
  "sequences": {"note": "The chains behind the UniProt entries cited, without tags or fusion partners.", "UniProt A0A287B5A9": "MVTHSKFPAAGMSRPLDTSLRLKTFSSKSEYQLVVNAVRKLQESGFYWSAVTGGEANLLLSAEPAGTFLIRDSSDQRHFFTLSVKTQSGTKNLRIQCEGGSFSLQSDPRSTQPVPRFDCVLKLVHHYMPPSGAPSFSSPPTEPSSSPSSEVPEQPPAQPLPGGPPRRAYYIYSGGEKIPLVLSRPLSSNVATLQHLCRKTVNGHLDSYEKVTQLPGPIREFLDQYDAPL"},
  "source": "paper PMC5007517",
  "key": {"[1]": {"target": "T1, HA-tagged TNF-receptor-associated factor (TRAF) 2 (pig (amplified from PK-15 porcine kidney cells)) (UniProt F1RVZ4)", "T1 sequence": "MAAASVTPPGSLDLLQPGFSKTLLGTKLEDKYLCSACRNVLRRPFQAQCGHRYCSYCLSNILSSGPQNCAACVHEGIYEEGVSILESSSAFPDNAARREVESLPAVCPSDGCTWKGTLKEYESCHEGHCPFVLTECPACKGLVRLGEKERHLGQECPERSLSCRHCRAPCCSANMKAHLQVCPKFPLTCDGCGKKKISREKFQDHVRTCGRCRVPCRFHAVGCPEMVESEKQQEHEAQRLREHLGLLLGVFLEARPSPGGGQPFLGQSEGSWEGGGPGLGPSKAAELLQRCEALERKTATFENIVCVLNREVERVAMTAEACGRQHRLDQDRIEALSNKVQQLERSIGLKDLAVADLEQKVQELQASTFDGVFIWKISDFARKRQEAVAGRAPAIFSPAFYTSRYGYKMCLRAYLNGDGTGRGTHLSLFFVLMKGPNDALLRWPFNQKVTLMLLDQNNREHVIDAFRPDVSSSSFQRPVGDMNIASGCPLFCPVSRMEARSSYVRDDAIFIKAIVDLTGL"}, "[2]": {"target": "FLAG-tagged SOCS3 (suppressor of cytokine signaling 3) (pig (amplified from PK-15 porcine kidney cells))"}},
  "note": "No constants are given. Whether binding was seen depends on the method and setting. Binding seen in cells or lysates may run through a third protein. Some results given as binding are weak or reduced against the parent protein; the word gives no strength. Sequences can lack the tags named with a protein.",
  "data": [
    {"molecule": "FLAG-tagged SOCS3 (suppressor of cytokine signaling 3) (from UniProt A0A287B5A9 1-229)", "values": [
      {"measurement": "binding", "setting": "[1]", "value": "binds"}
    ]},
    {"molecule": "HA-tagged TNF-receptor-associated factor (TRAF) 2 (protein, UniProt F1RVZ4 1-520) MAAASVTPPGSLDLLQPGFSKTLLGTKLEDKYLCSACRNVLRRPFQAQCGHRYCSYCLSNILSSGPQNCAACVHEGIYEEGVSILESSSAFPDNAARREVESLPAVCPSDGCTWKGTLKEYESCHEGHCPFVLTECPACKGLVRLGEKERHLGQECPERSLSCRHCRAPCCSANMKAHLQVCPKFPLTCDGCGKKKISREKFQDHVRTCGRCRVPCRFHAVGCPEMVESEKQQEHEAQRLREHLGLLLGVFLEARPSPGGGQPFLGQSEGSWEGGGPGLGPSKAAELLQRCEALERKTATFENIVCVLNREVERVAMTAEACGRQHRLDQDRIEALSNKVQQLERSIGLKDLAVADLEQKVQELQASTFDGVFIWKISDFARKRQEAVAGRAPAIFSPAFYTSRYGYKMCLRAYLNGDGTGRGTHLSLFFVLMKGPNDALLRWPFNQKVTLMLLDQNNREHVIDAFRPDVSSSSFQRPVGDMNIASGCPLFCPVSRMEARSSYVRDDAIFIKAIVDLTGL", "values": [
      {"measurement": "binding", "setting": "[2]", "value": "binds"}
    ]}
  ]
}
